MtTrpRS: 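Enzyme assay of tryptophanyl-tRNA synthetase; the read-out is not stated. Target: Tryptophan-tRNA ligase, Mycobacterium tuberculosis (UniProt P9WFT3). Concentration: 10 µM. Direction is not recorded; retested compounds ran higher, which suggests that high means inhibition. About 65,000 compounds were tested under these conditions; 0.098% (about 64) showed 50% or more at least once.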
Leishmania in macrophages: 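Cell assay of Leishmania donovani living inside macrophages; the read-out is not stated. Concentration: 30 µM. Direction is inferred from retests: higher values go with stronger inhibition. Of about 69,000 compounds tested this way, about 1,000 (1.5%) reached 50% or more in at least one test.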

The chains behind the UniProt entries cited, without tags or fusion partners.
UniProt P9WFT3, whole entry: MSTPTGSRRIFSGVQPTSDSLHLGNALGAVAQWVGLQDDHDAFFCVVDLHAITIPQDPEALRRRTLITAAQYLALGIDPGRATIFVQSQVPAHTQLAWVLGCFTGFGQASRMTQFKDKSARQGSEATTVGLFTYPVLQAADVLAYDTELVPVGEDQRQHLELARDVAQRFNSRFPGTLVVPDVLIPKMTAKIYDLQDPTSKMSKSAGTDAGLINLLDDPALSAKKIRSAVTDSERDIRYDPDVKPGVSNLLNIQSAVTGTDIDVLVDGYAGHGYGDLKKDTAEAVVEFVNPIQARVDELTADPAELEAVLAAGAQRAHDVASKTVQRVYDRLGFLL

Results are given as percent effect. The controls that fix the scale are not given in the record; negative values are as filed. Compounds were drawn at random from those tested, without regard to their results. Two or more numbers in one place are separate tests of the same structure; such repeats can differ widely. A dash means the value is not listed here; it may have been measured.

| Compound | MtTrpRS | Leishmania in macrophages |
|---|---|---|
| `O=C(NCC1(Sc2ccccc2)CC1)c1cc[nH]n1` | 3.168% | 33.8% |
| `Cc1cc(CN(C)C(=O)NCc2ccccn2)no1` | 0% | 15.65% |
| `Cc1cccc(CN2CCC3(CC(C(=O)NCC(C)C)=NO3)C2)c1` (centres unmarked) | - | 14.53% |
| `CCNC(=O)c1nnn(Cc2ccccc2)c1OC` | 0.201% | 5.399% |
| `O=C1NC[C@]2(CC[C@@H](C(=O)N3CCC(O)CC3)CC2)Oc2ccccc21` | -8.471% | 13.55% |
| `Cc1ccc2oc(=O)n(CCC(=O)N3CCC4(CN(C)C(=O)O4)C3)c2c1` (centres unmarked) | 1.282% | 17.17% |
| `O=C(O)C(F)(F)F.O=C(O)C(F)(F)F.[H][C@@]12CN(Cc3cc[nH]n3)C[C@]1([H])OCCN2C(C)C` | - | 22.51% |
| `CCN(CC)C1CCN(C(=O)c2cc3cc(C)cc(C)c3nc2C)CC1.Cl` | - | 17.97% |
| `Cc1ncnc2c1CCN(C(=O)c1ccncc1)CC2.O=C(O)C(F)(F)F` | - | -19.99% |
| `Cn1ccc(C(=O)N2CCC(Cc3cccc4cccnc34)C2)n1` (centres unmarked) | -2.592% | 15.97% |
| `CN(Cc1n[nH]c(=O)n1Cc1ccccc1F)S(C)(=O)=O` | 0.552% | 24.11% |
| `O=c1ccc(-c2cccs2)nn1CN1CCOCC1` | 1.891% | 5.972% |
| `CC(CNC(=O)OC(C)(C)C)N(C)C(=O)COc1ccccc1C#N` (centres unmarked) | 0.7199% | 5.532% |
| `O=C(Cn1cccn1)NCC(c1cccs1)N1CCCC1` (centres unmarked) | -3.762% | 38.19% |
| `CCOc1ccc(NC(=O)NCC(C)(O)c2cccs2)cc1` (centres unmarked) | 0.8223% | 24.54% |
| `COCCNC(=O)c1cc(OC)ccc1Br` | -1.784% | 9.82% |
| `CN1C[C@@H](NC(=O)c2cc(F)cc(F)c2)C[C@H]1C(=O)NCc1ncc[nH]1` | -3.355% | -6.571% |
| `CCn1c(C2CCNCC2)nn(CCCc2ccccc2)c1=O` | -5.589% | -2.81% |
| `COc1cc(Cl)cc(C(=O)N2CCC3(CCCNC3)C2)c1` (centres unmarked) | -0.9226% | 37.9% |
| `Fc1ccc(-c2nnc(CN3CCOC(Cn4cncn4)C3)o2)cc1` (centres unmarked) | 3.917% | -24.69% |
| `COc1ccccc1CNC(C)c1ccc(-n2ccnc2)cc1` (centres unmarked) | 1.713% | - |
| `[H][C@@]12C[C@@H](O)C[C@]1([H])CN(C(=O)c1cc(C3CCCCC3)no1)C2` | - | 4.559% |
| `COc1ccc(CCNC(=O)C2CC2)c(Cl)c1` | 3.771% | -11.43% |
| `Cn1nnn(-c2ccc(NS(=O)(=O)c3ccc(Br)cc3)cc2)c1=O` | 4.331% | -7.694% & 3.053% |
| `CCS(=O)(=O)c1ncc(CN(C)Cc2cccc(OC)c2)n1CCOC` | -1.377% | -0.7736% |
| `CC(=O)N1CCCC1c1nnc2n1CCCCC2` (centres unmarked) | 1.689% | 6.473% |
| `CC(c1cccnc1)N(C)Cc1ccccn1` (centres unmarked) | -1.227% | 9.7% |
| `CC[C@@H](CO)Nc1nccc(-c2c[nH]c3cc(C(=O)OC)ccc23)n1` | - | 21.71% & 9.969% |
| `COc1ccc(OC)c(C2CCN(C(=O)C3CCN(C(C)C)CC3)C2)c1` (centres unmarked) | -7.173% | 7.61% |
| `O=C([C@H]1COC[C@H]2CN(c3ncc(F)cn3)C[C@H]21)N1CCOCC1` | 0.0969% | - |
| `Cc1ccc(S(=O)(=O)N2CCOCC2C#N)cc1Br` (centres unmarked) | -0.8895% | -6.164% |
| `CCOc1nnc(CN2CCN(CCOC)C(C)C2)s1` (centres unmarked) | -1.231% | 1.301% |
| `c1cncc(CN(Cc2ccc(-n3ccnc3)cc2)CC2CCCO2)c1` (centres unmarked) | -4.895% | 5.884% |
| `COc1ccc(Br)cc1CCC(=O)N1CCC(O)CC1` | 0.6552% | 13.41% |
| `CCc1ccc(NC(C(N)=O)c2ccc(F)cc2)cc1` (centres unmarked) | -1.774% | 0.1725% |
| `Cn1ncc2ccc(C3CCCN(Cc4cccs4)C3)nc21` (centres unmarked) | 1.042% | 14.76% |
| `Cc1nc(CC(=O)N2CCN(C(C)c3ccccc3F)CC2)cs1` (centres unmarked) | -7.339% | 16.11% |
| `COc1cccc(CN(C)CC2=Nc3ccccc3S(=O)(=O)N2)c1` | 2.279% | 32.08% |
| `O=C(NC1CCC1)C1CCC2(CN(C(=O)c3ccno3)C2)O1` (centres unmarked) | 2.81% | 6.2% |
| `CCC(Nc1nc(C2CCCC2)nc2c1cnn2C)c1ccncc1` (centres unmarked) | 6.052% | -7.574% |
| `Cc1cc(N2CCC(N(C)C(=O)c3sccc3C)CC2)nc(C)n1` | 4.487% | 0.8066% |
| `N#Cc1cccc(CN2CCn3cc(CNC(=O)C4CCC4)nc3C2)c1` | -2.766% | 28.76% |
| `COCc1cc(N(C)Cc2cc(C(C)(C)C)n[nH]2)ncn1` | 1.398% | 5.54% |
| `CC(C)(C)OCCN(Cc1cccc(O)c1)C1CCC(O)CC1` (centres unmarked) | 0.07137% | 8.257% |
| `COCc1nc2n(n1)CCCC2Nc1nc(C(C)C)ns1` (centres unmarked) | -2.484% | 15.15% |

Data taken from ChEMBL document CHEMBL3988442, “University of Dundee, Small-Polar-MMV Screening Library” (2021).